{
  "source": "paper PMC3709825",
  "assay_in_all_cases": "EMSA",
  "key": {"MarA + SoxS": {"tested_on": "MarA + SoxS", "details": "20 mM HEPES, 100 mM KCl, 2 mM MgCl2, 0.1 mM EDTA, 20% glycerol, pH not stated, […], recombinant protein, protein details: His-tag,His-tag, probe letters rebuilt from the primers and the genome"}, "MarA": {"target": "T1, MarA (UniProt P0A2S4)", "T1 sequence (looked up, limits assumed)": "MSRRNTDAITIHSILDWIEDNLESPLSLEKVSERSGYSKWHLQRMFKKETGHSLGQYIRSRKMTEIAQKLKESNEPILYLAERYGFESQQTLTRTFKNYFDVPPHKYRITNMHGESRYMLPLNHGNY", "details": "shift at 100 nM MarA; 20 mM HEPES, 100 mM KCl, 2 mM MgCl2, 0.1 mM EDTA, 20% glycerol; pH not stated; 30 min room temperature; […]; recombinant protein; protein details: His-tag; probe letters rebuilt from the primers and the genome"}, "SoxS": {"target": "T2, SoxS (UniProt Q56143)", "T2 sequence (looked up, limits assumed)": "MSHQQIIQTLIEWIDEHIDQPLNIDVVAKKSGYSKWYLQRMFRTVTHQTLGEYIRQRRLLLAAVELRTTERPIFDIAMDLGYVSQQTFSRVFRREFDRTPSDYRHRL", "details": "shift required 400 nM SoxS; 20 mM HEPES, 100 mM KCl, 2 mM MgCl2, 0.1 mM EDTA, 20% glycerol; pH not stated; 30 min room temperature; DNA ~2 ng/ml; 6% native PAGE in 0.5x TBE, ethidium bromide; recombinant protein; protein details: His-tag; probe letters rebuilt from the primers and the …"}},
  "note": "Construct, isoform or probe ends are uncertain for at least one entry. For some of these results: Where a protein sequence is shown, tags need not be part of it.",
  "data": [
    {"sequence": "CGGGGTACCCCCGATATCGAAAATTCGCGACAGGTTGAAGGGCGGTTTTCATAAATAGCGCAACTGACGTTTTCACCCGGCGTGCCAATTAGCGCTTTACAGTGCGGCTGTTTTTGGTTGGTACCGGCCATACAACGTAAAAAAGGGGTAACAGGCTCGGTTAATGACGCCGGAACGCGTCCGCTGGCATCGTCGCCTTCAGCCCAATAAAAGGAGACACGAAAATAGGCACAACAGGCACCGCATGTCATGCATGGGTTAAGAACGCTCATGATTCACCTGCAAAAAACTAACGTATCAATAGATTACAACGGAAATTAATCTGTCCCGCAGTGTTCGCGAATCTTAACGCCACGCGCCATTGCGGGACATTGATTACCTTAGCCAGCCTTTATCGCCAGGGCAACAGGAAAAGACAAATATTTGCATAGCGTGAATATGTCAAAATTGATCTGAATTCCTATAACCAGGATTTTCAATACAAGTTCTAAATTAATCTGGATCAATAAATGTTAAATTATAAGAACAAATGTGATCTGTATTAGATCACTTATTACTTCATTGTGGGTATATTCATCACGCTTTTATAACCATAACGATGGAGCGGGTAAGCTTGGG (double strand) [fragment C (MS-B mutated)]", "values": [
      {"measurement": "binding result", "setting": "MarA + SoxS; MarA constant 200 nM, higher-mass complex already at 0.0125 uM SoxS, 30 min room temperature", "value": "binds"},
      {"measurement": "binding result", "setting": "MarA + SoxS; SoxS constant 0.8 uM, higher-mass complex at 100 nM MarA, 30 min room …", "value": "binds"}
    ]},
    {"sequence": "CGGGGTACCCCCGATATCGAAAATTCGCGACAGGTTGAAGGGCGGTTTTCATAAATAGCGCAACTGACGTTTTCACCCGGCGTGCCAATTAGCGCTTTACAGTGCGGCTGTTTTTGGTTGGTACCGGCCATACAACGTAAAAAAGGGGTAACAGGCTCGGTTAATGACGCCGGAACGCGTCCGCTGGCATCGTCGCCTTCAGCCCAATAAAAGGAGACACGAAAATAGGCACAACAGGCACCGCATGTCATGCATGGGTTAAGAACGCTCATGATTCACCTGCAAAAAACTAACGTATCAATAGATTACAACGGAAATTAATCTGTCCCGCAGTGTTCGCGAATCTTAACGCCACGCGCCATTGCGGGACATTGATTACCTTAGCCAGCCTTTATCGCCAGGGCAACAGGAGCAGACAAATATTTGCATAGCGTGAATATGTCAAAATTGATCTGAATTCCTATAACCAGGATTTTCAATACAAGTTCTAAATTAATCTGGATCAATAAATGTTAAATTATAAGAACAAATGTGATCTGTATTAGATCACTTATTACTTCATTGTGGGTATATTCATCACGCTTTTATAACCATAACGATGGAGCGGGTAAGCTTGGG (double strand) [ompW promoter fragment A (wild type)]", "values": [
      {"measurement": "binding result", "setting": "MarA", "value": "binds"},
      {"measurement": "binding result", "setting": "SoxS", "value": "binds"}
    ]}
  ]
}
